Screen size: about 310,000 compounds; about 17,000 (5.5%) were called active. The shares of active, inactive and inconclusive entries below differ from those in the screen. The call rests on the fitted dose curve; in most records, active means well fitted inhibition curve with a large enough effect; inconclusive means small, poorly fitted or top-dose-only effect, or effect the other way; inactive means no such curve, though single readings can be large or run the other way. A potency beside an inconclusive call is a rough fit, not a confirmed value.
These compounds were tested against Nuclear receptor ROR-gamma (Mus musculus) (UniProt P51450) (assay: qHTS for inhibitors of ROR gamma transcriptional activity). Conditions: Drosophila S2 Gal4-RORgamma UAS-luciferase reporter, 20 h; series mostly up to 53.6 µM.
How it was run: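 Luminescence from a UAS-regulated Photinus luciferase reporter in stably transfected Drosophila Schneider cells is measured; decreased signal marks ROR gamma inhibition. Fusion expression is induced by 700 uM copper sulfate for 20 hr.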
Further: nearly all actives have a fitted effect of over 60% in size.
Potency means the concentration at half of the fitted maximal effect.

Chains of the proteins cited; added tags and fusions are not shown. Lines headed by an entry give the natural chain unless they say otherwise; changes in a name come on top.
UniProt P51450: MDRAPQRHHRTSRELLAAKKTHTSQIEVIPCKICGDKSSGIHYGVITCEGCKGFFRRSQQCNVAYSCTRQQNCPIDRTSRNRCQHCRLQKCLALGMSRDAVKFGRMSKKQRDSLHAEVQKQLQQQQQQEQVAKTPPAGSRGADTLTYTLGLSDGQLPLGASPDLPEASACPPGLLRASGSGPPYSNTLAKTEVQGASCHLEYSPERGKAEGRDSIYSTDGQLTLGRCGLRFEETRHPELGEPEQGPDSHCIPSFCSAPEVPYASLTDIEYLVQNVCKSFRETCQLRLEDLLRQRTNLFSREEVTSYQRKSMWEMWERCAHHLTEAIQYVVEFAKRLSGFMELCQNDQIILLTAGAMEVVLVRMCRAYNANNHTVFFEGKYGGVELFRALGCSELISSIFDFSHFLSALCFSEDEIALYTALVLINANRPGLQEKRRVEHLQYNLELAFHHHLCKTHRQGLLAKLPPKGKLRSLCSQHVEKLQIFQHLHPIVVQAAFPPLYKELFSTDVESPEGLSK

| Structure (SMILES) | Potency |
| --- | --- |
| O=C(Nc1nc(-c2nc3ccccc3s2)cs1)C1COc2ccccc2O1 (stereo unspecified) | inconclusive: 5.01 µM [activator, single point] |
| COc1cc(C=O)c(Br)cc1OCc1ccc(C)cc1 | inactive |
| O=c1cc(C(Cl)(Cl)Cl)oc2c1ccc1ccccc12 | active: 1.41 µM |
| O=C(NN=C1c2ccccc2-c2ccccc21)c1ccccn1 | active: 3.16 µM |
| O=C(O)c1cccc(NC(=S)N/N=C/c2c[nH]c3ccccc23)c1 | inconclusive: 17.8 µM [inhibitor, single point] |
| COc1ccc2cc(S(=O)(=O)NCc3cccnc3)ccc2c1 | inconclusive: 12.6 µM [activator, partial curve] |
| O=C(c1ccccc1O)N1N=C(c2ccccc2)CC1(O)C(F)(F)F (stereo unspecified) | active: 8.91 µM |
| O=C(Cc1ccccc1)Nc1nc(=O)c2ccccc2s1 | inconclusive: 20 µM [inhibitor, single point] |
| Cc1ccc(CNC(=O)CSc2nc3ccsc3c(=O)n2NC(=O)c2ccccc2)cc1 | inactive |
| Cc1cccc(N2CCN(C(=S)Nc3ccc4nc(N5CCOCC5)cc(C)c4c3)CC2C)c1 (stereo unspecified) | inconclusive: 20 µM [inhibitor, single point] |
| COc1ccc(C2=Nc3cc(C)ccc3OC2)cc1 | active: 10 µM |
| CC(=O)NNC(=O)CN1C(=O)/C(=C/c2ccccc2)SC1=S | inconclusive: 1.41 µM [inhibitor, full curve, poor fit] |
| CC(C)n1c(SCc2cc(=O)[nH]c3ccccc23)nc2c1c(=O)n(C)c(=O)n2C | inconclusive: 35.5 µM [inhibitor, single point] |
| CSc1nccc(N2CCN(c3ccc(F)cc3)CC2)n1 | inconclusive: 22.4 µM [activator, single point] |
| COc1ccc(CNC(=O)[C@H](C)N2C(=O)N3CCc4c([nH]c5ccccc45)[C@@]3(C)C2=O)cc1OC | inactive |
| OC[C@@H](O)[C@@H](O[C@H]1O[C@H](CO)[C@@H](O)[C@H](O)[C@H]1O)[C@H](O)[C@@H](O)CO | inactive |
| Cc1ccc(NC(=O)CN(C)C(=O)c2cccnc2Nc2cccc(C(F)(F)F)c2)cc1 | inconclusive: 35.5 µM [inhibitor, single point] |
| CC(=O)c1ccccc1C(=O)N1CCCC(C(=O)c2ccc(C(F)(F)F)cc2)C1 (stereo unspecified) | inconclusive: 12.6 µM [activator, single point] |
| c1ccc(SCCSc2ccccc2)cc1 | inconclusive: 15.8 µM [activator, single point] |
| COC(=O)N/N=C/c1cc([N+](=O)[O-])cc(Br)c1O | active: 11.2 µM |
| CN(C)C(CNC(=S)Nc1cccc(Cl)c1)c1ccccc1 (stereo unspecified) | active: 3.98 µM |
| Cc1cc(NC(=O)c2ccc(Br)c(S(=O)(=O)N3CCCC3)c2)no1 | inconclusive: 14.1 µM [activator, single point] |
| N#CCCC12CCCCC1=Nc1ccccc12 (stereo unspecified) | inconclusive: 0.631 µM [inhibitor, single point] |
| OC(COc1ccc(CNCCc2ccccc2F)cc1)CN1CCCCC1 (stereo unspecified) | inactive |
| NC(=S)NNc1c(F)c(F)c(F)c(F)c1F | active: 12.6 µM |
| COc1cc(OC)c(NC(=O)C2CCN(S(=O)(=O)c3ccc4c(c3)CC(C)N4C(C)=O)CC2)cc1Cl (stereo unspecified) | inconclusive: 22.4 µM [activator, single point] |

| Structure (SMILES) | Potency |
| --- | --- |
| O=C(Cn1cnc2c(nnn2-c2cccc(Cl)c2)c1=O)N1CCCC1 | inactive |
| O=C(COC(=O)C1Cc2ccccc2CN1C(=O)c1ccccc1Cl)Nc1ccc(N2CCOCC2)cc1 (stereo unspecified) | inactive |
| Cc1ccccc1NC(=S)NCc1cccn1C | inconclusive: 8.91 µM [inhibitor, single point] |
| C=CCN=Cc1c(C)[nH]n(-c2ccccc2)c1=O | inactive |
| COc1ccc(CN(C)C(=S)Nc2ccc(Cl)cc2Cl)cc1 | active: 17.8 µM |
| O=C(c1ccc(Nc2cccc(C(F)(F)F)c2)nc1)N1CCCC1 | inconclusive: 17.8 µM [activator, single point] |
| C=CCn1c(-c2cccc(OC)c2)nc2nc3ccccc3nc21 | inactive |
| COC(=O)c1cc(=O)n(CCc2ccc(OC)c(OC)c2)c(=Nc2ccc(F)c(Cl)c2)s1 | active: 17.8 µM |
| O=S(=O)(c1cccc(C(F)(F)F)c1)N1CCN(c2ccccc2)CC1 | inconclusive: 35.5 µM [inhibitor, single point] |
| CC(C)OC(=O)CC(=O)CSc1nc2c(cc1C#N)CCC2 | inconclusive: 35.5 µM [inhibitor, single point] |
| Cc1cccc(-c2nc(-c3ccncc3)no2)c1 | inconclusive: 10 µM [inhibitor, partial curve, poor fit] |
| COC(=O)Nc1ccc(S(=O)(=O)N2CCCC(C(=O)N3CCN(C)CC3)C2)cc1 (stereo unspecified) | inactive |
| CSc1ccc(/C=C/C(=O)c2c(O)cc(C)oc2=O)cc1 | inconclusive: 35.5 µM [inhibitor, single point] |
| CCC(O)(c1ccccc1)C(CN1CCOCC1)c1ccccc1 (stereo unspecified) | inactive |
| Cn1nc(-c2ccc(Cl)cc2)cc1NC(=O)CSCC(=O)O | inactive |
| Cc1cc2nc(C)n(CCCNC(=O)Nc3ccc(F)cc3)c2cc1C | inactive |
| CN(CC(=O)NCCc1ccccc1)S(=O)(=O)c1cccc2nsnc12 | inconclusive: 22.4 µM [activator, single point] |
| CCc1ccc(-c2cc(C)no2)cc1S(=O)(=O)NCCc1ccccc1 | inconclusive: 14.1 µM [activator, partial curve] |
| COc1cc(CNc2cccc(C(=O)O)c2)cc(Br)c1OCC(=O)NC(C)(C)C | inconclusive: 0.794 µM [inhibitor, single point] |
| COc1ccccc1C(=O)N/C(=C/c1ccc(Br)cc1)C(=O)N1CCCC1 | inactive |
| OB(O)c1cc2ccccc2o1 | inconclusive: 0.0071 µM [activator, full curve, poor fit] |
| Cc1cc(C)c(S(=O)(=O)Nc2nccs2)c(C)c1 | inactive |
| Cc1cccc(OCC(=O)Nc2ccncc2)c1C | inconclusive: 0.794 µM [activator, full curve, poor fit] |
| CCn1c(COc2ccccc2OC)nnc1SCC(=O)NC1CCCC1 | inactive |
| FC(F)(F)c1ccc(CN2C[C@@H]3C(c4ccc(C(F)(F)F)cc4)C4(c5cccnc5)CC3(C4)[C@H]2c2ccccc2)cc1 (stereo partly specified) | inactive |
| Cc1nn(C2CCS(=O)(=O)C2)c(Cl)c1/C=C/C(=O)OCC(N)=O (stereo unspecified) | inactive |

| Structure (SMILES) | Potency |
| --- | --- |
| COC(=O)C(Cc1c[nH]c2ccccc12)NC(=O)c1cc(-c2ccc(OC)c(OC)c2)oc1C (stereo unspecified) | inconclusive: 39.8 µM [inhibitor, partial curve, poor fit] |
| COc1ccc(/C=N\NC(=O)C2CCCC2)cc1Br | inactive |
| CC(Cc1cccs1)NC(=S)Nc1ccccc1 (stereo unspecified) | active: 4.47 µM |
| COCCn1c(N)c(N(Cc2ccccc2)C(=O)c2oc3ccccc3c2C)c(=O)[nH]c1=O | inconclusive: 0.501 µM [activator, partial curve] |
| S=c1[nH]nc(Cc2cccs2)n1-c1cccc2ccccc12 | active: 3.98 µM |
| O=S(=O)(NC(=NC1CCCC1)C(F)(F)F)c1ccccc1 | inactive |
| Cc1cccc(NS(=O)(=O)c2nnc(NC(=O)C3CCCCC3)s2)c1 | inconclusive: 22.4 µM [activator, single point] |
| COc1cccc(C2=NN(C(=O)c3ccc(C)o3)C(O)(C(F)(F)F)C2)c1 (stereo unspecified) | inactive |
| NC(=O)CC1C(=O)N(c2ccccc2)C(=S)N1NC(=O)c1ccccc1 (stereo unspecified) | inconclusive: 15.8 µM [inhibitor, single point] |
| Cc1cc(C)nc(N2N=C(CSc3ccc(Cl)cc3)CC2=O)n1 | inconclusive: 35.5 µM [inhibitor, single point] |
| COc1ccccc1NC(=S)NNC(=O)c1ccccc1Br | inconclusive: 7.08 µM [inhibitor, partial curve] |
| Cc1c(C(=O)N2CCc3ccccc3C2)oc2ccccc12 | inactive |
| CCc1nn(C(C)C(=O)Nc2cccc(C)c2C)c(=O)c2cc3occc3n12 (stereo unspecified) | inconclusive: 3.55 µM [activator, full curve] |
| CC(C)c1nnc(NC(=O)c2ccc3c(c2)OCO3)s1 | active: 6.31 µM |
| COc1cc(CNc2ccc(N3CCOCC3)cc2)cc(Br)c1OC | inactive |
| NC(N)=N/N=C/c1ccc(OCc2ccccc2Cl)cc1 | inconclusive: 35.5 µM [inhibitor, single point] |
| Cc1ccc(-c2cc(C(=O)Nc3ccc(S(=O)(=O)Nc4cc(C)on4)cc3)c3ccccc3n2)c(C)c1 | inconclusive: 35.5 µM [activator, single point] |
| CCCC(=O)NC(c1ccc(N(C)C)cc1)c1c(O)ccc2ccccc12 (stereo unspecified) | inconclusive: 35.5 µM [activator, single point] |
| CCCCOc1ccc(C(=O)NC(=S)Nc2ccc(CN3CCOCC3)cc2)cc1 | inconclusive: 7.08 µM [inhibitor, partial curve] |
| COC(=O)c1ccccc1OCCOCCOc1cccc2ccc(C)nc12 | inactive |
| Cc1ccc(C(=O)N/N=C/c2ccoc2)cc1C | active: 12.6 µM |
| O=C(NC(=S)Nc1ccc(F)c([N+](=O)[O-])c1)c1ccccc1F | inconclusive: 22.4 µM [inhibitor, single point] |
| CCOC(=O)C1=C(C)NC(=S)NC1C (stereo unspecified) | inconclusive: 35.5 µM [inhibitor, single point] |
| O=C(O)c1ccc(CSc2nnc(-c3ccccc3Br)o2)cc1 | inconclusive: 10 µM [inhibitor, partial curve] |
